## Primary screen of a compound library

Mtb growth Cornell: 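Whole-cell assay for inhibitors of Mycobacterium tuberculosis growth, labelled Cornell in the record; the read-out is not stated. The concentration is filed as 10 mM, unlikely as a test dose, so the dose is not known. The record gives no direction; compounds strong in two other growth screens of this library score well above the rest, so higher reads as stronger inhibition. Of about 53,000 compounds tested this way, about 900 (1.7%) reached 50% or more in at least one test.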
Mtb heat-shock: 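Assay on Mycobacterium tuberculosis, filed only as a heat shock assay from Cornell; the read-out is not stated. The concentration is filed as 10 mM, unlikely as a test dose, so the dose is not known. Higher reads as stronger inhibition (inferred: compounds with an IC50 in retests scored well above the rest). Size under these conditions: about 69,000 compounds, about 930 of them at 50% or above in at least one test.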

Results are given as percent effect. How 0% and 100% were set is not recorded. Most values in the screen are low, and negative values occur. This is an unselected part of the compounds tested. A dash means the value is not listed here; it may have been measured.

| structure | Mtb growth Cornell | Mtb heat-shock |
|---|---|---|
| `CC(C)(C)NC(=O)COc1ccc(CNCc2ccccn2)cc1` | - | -8.916% |
| `CCCNC(=O)Nc1cc2c(cc1SC)OCCO2` | -3.087% | 1.423% |
| `[H][C@@]12CN(C(=O)CCc3ccccc3)C[C@@]1([H])OCC(=O)N2` | - | -4.752% |
| `Cc1ccc(N2CCCN(C(=O)c3cc(Cl)c[nH]3)CC2)nn1` | 38.91% | 3.641% |
| `CSCCCN1CCn2nc(CNC(=O)N(C)C)cc2C1` | 22.84% | 2.322% |
| `Cc1cc(NC(=O)NCc2ccccc2OC(F)F)n(C)n1` | - | -0.7917% |
| `CNc1ncc(C(=O)N2CCC(c3ccccc3C(=O)O)C2)cn1` (configuration not stated) | -27.81% | -12.33% |
| `CC(C)CCN1CCCC12Cc1ccccc1CNC2=O` (configuration not stated) | - | -18.41% |
| `Cn1c(CN2CCCC2)nnc1C1CCCN(C(=O)CN2CCCC2)C1` (configuration not stated) | - | 24.27% |
| `COc1ccc(NC(=O)N2CCC(c3noc(C)n3)CC2)cc1C` | 55.08% | 1.91% |
| `Cn1c(C(=O)N2CCc3[nH]cnc3C2C(=O)O)ccc1-c1ccccc1` (configuration not stated) | -7.767% | -16.58% |
| `CCOC(=O)c1coc(N2CCN(Cc3ccc(C)cc3)C(=O)C2)n1` | 6.149% | -7.203% |
| `CN(Cc1ccccc1F)C(=O)COC(=O)c1cc(Cl)c[nH]1` | -15.33% | -6.229% |
| `Cc1c[nH]c(CN(C)C(=O)c2ccc(CSc3nnc[nH]3)o2)n1` | -18.65% | 8.089% |
| `CCOCCC(=O)Nc1cccc(Oc2ccccn2)c1` | -2.089% | -20.55% |
| `Cc1nc(CN2CCCC2Cn2cncn2)nc2ccccc12` (configuration not stated) | -31.53% | 19.17% |
| `CC(C)(C)c1n[nH]c(C2CN(C(=O)c3cc(C4CC4)[nH]n3)CCO2)n1` (configuration not stated) | - | -5.299% |
| `O=C([C@H]1CCCO1)N1CC[C@@H](O)[C@@H]1Cc1ccccc1` | 21.73% | -8.68% |
| `CCCn1c(C)c(CC(=O)N(C)CC(=O)OC)c2c1CC(C)(C)CC2=O` | 33.31% | 1.77% |
| `Cc1cnc(NCCc2c[nH]cn2)nc1-c1ccnn1C` | - | 11.16% |
| `Cc1nnc(SCCC(=O)N(C)Cc2ccc(F)cc2Cl)[nH]1` | - | 6.82% |
| `O=C(O)C(F)(F)F.[H][C@@]12OCCN(C(=O)c3cccn3C)[C@@]1([H])CC[C@H]2OCc1cccnc1` | 26.28% | -40.26% |
| `Cc1n[nH]c(C)c1CCC(=O)NCC1CCCN(C2CCCC2)C1` (configuration not stated) | -26.42% | 4.787% |
| `Cc1cccc(N2CCN(c3ccn4c(=O)[nH]nc4n3)CC2)c1C` | 10.22% | 7.27% |
| `CCN1CCOC(CNCc2ccccc2OCC(=O)N(C)C)C1` (configuration not stated) | -9.822% | 16.53% |
| `CC(C)CC(CC(C)C)NC(=O)c1ccn(C)c(=O)c1` | 5.917% | -11.43% |
| `COc1ccccc1OCc1cc(C(=O)N2CCCCCC2CO)n[nH]1` (configuration not stated) | -12.38% | -30.54% |
| `CCc1ccc(CNC(=O)NC(C)CN2CCOCC2)s1` (configuration not stated) | -19.06% | 6.944% |
| `O=S1(=O)COCCN1Cc1ccc(Cl)c(F)c1` | - | 5.81% |
| `CC(C)[C@@H]1CN(Cc2ccsc2)C[C@H]1NS(=O)(=O)N(C)C` | - | 5.738% |
| `CC(C)(C(=O)NCC1CCN(Cc2ncc[nH]2)C1)c1ccccc1` (configuration not stated) | 2.386% | -20.48% |
| `O=c1c(CN2CCCCCC2)coc(O)c1CN1CCOCC1` | 41.64% | -1.34% |
| `CC(C)c1nc(C2CCCN2C(=O)c2cc(Cl)c[nH]2)no1` (configuration not stated) | 41.92% | 22.48% |
| `O=C(c1ccnc(C2CCNCC2)c1)N1CCCC(CO)C1` (configuration not stated) | 34.34% | -12.7% |
| `Cc1oc(C)c(C(=O)NCc2cccnc2N(C)C)c1C` | - | -5.454% |
| `CCc1cc(C(=O)NCC2CCN(Cc3cccc(C#N)c3)C2)on1` (configuration not stated) | 19.6% | 14.13% |
| `Cc1cc(C(=O)N2CCN(Cn3cc(Cl)cn3)CC2)on1` | 10.6% | 13.77% |
| `CC(C)(C)CC(=O)NCC(=O)Nc1ccn(CCCn2ccnc2)n1` | 4.25% | -1.618% |
| `CN(C)c1ccc(C(=O)NCc2csc(Br)c2)cn1` | - | 3.246% |
| `CC(C)[C@H]1CN(Cc2ccccn2)C[C@@H]1NC(=O)CC1CCC1` | 25.77% | -7.082% |
| `c1coc(CN2CCC3(CC2)CC(N2CCCC2)CO3)c1` (configuration not stated) | - | -25.94% |
| `CCC(C(=O)N(C)Cc1cc(C2CC2)[nH]n1)n1cccn1` (configuration not stated) | 12.04% | -20.63% |
| `CCn1c(NCc2ccccc2)nc2c(C)nn(C)c2c1=O` | - | 12.91% |
| `Cc1ccc([C@@H]2CN(S(=O)(=O)Cc3ccccc3)C[C@H]2N(C)C)cc1` | - | 17.22% |
| `COCC(C)NC(=O)CCCn1cnc2ccccc2c1=O` (configuration not stated) | 7.524% | 3.14% |
| `O=c1[nH]c(NCc2cccc(-c3ccccc3)c2)nc2c1CCNC2` | 16.64% | -4.975% |
| `Cc1ccccc1NC(=O)NCCn1nc(C(F)(F)F)n(C)c1=O` | 12.34% | -6.946% |
| `O=C(NCC1CCOC1)Nc1ccc(Oc2cccc(F)c2)nc1` (configuration not stated) | - | 3.301% |
| `CCC(CC)(CNC(C)=O)NC(C)c1ccccc1` (configuration not stated) | 1.087% | -7.043% |
| `CCn1ccnc1CN1CCN(CCOc2ccc(C#N)cc2)CC1` | - | -18.09% |
| `Cc1cc(-c2cnc(NCc3cccnc3)nc2C(C)C)on1` | - | 26.04% |
| `CC(NC(=O)NC1CCN(CC2CCCC2)CC1)c1nccs1` (configuration not stated) | 17.63% | -41.54% |
| `CN(C)CCN1CC2(CCC1=O)CCN(C(=O)c1ccn(C)n1)CC2` | - | 8.962% |
| `CC(Cn1ccnc1)NC(=O)NCCc1ccc(Cl)s1` (configuration not stated) | - | 2.424% |
| `CN1CCN(C2COC3(CCN(Cc4ccc(F)cc4)CC3)C2)CC1.O=C(O)C(F)(F)F.O=C(O)C(F)(F)F.O=C(O)C(F)(F)F` (configuration not stated) | 10.44% | -9.014% |
| `CC1N(CC2CC2)C(=O)COC12CCN(C(=O)c1ccncc1)CC2` (configuration not stated) | 28.95% | 5.908% |
| `[H][C@@]12COC[C@]1(c1nnc(C(C)C)o1)CN(C(=O)c1cc(C)no1)C2` | 31.31% | -5.197% |
| `CCn1cc(C(=O)NCc2csc(Br)c2)cn1` | - | 20.81% |
| `CSCc1cccc(S(=O)(=O)NCCCN2CCOCC2)c1` | -64.72% | -21.78% |
| `CC(=O)Nc1ccc(OCc2noc(C(=O)N3CCCCC3)n2)cc1` | -16.52% | 65.04% |
| `O=C(NCCc1nnc2n1CCCCC2)N1CCC2(CCCC2)CC1` | -0.7926% | -7.71% |
| `CCOCCCNC(=O)CN(c1ccc(C)c(C)c1)S(C)(=O)=O` | - | -12.24% |
| `CN(Cc1cccc(C(=O)Nc2ccnn2C)c1)CC1(C)COC1` | -47.81% | -8.064% |
| `c1cncc(CN2CCn3cc(CN4CCCCC4)nc3C2)c1` | 28% | 2.9% |
| `Cc1ccc(C(=O)N2CCC3(CC2)CCN(CCN(C)C)C3=O)cn1.O=C(O)C(F)(F)F.O=C(O)C(F)(F)F` | 7.213% | -5.335% |
| `COCCN(CC(C)C)c1cc(C)ncn1` | -10.13% | -32.92% |
| `CC(C)c1nc(CN2CCCC(O)C2)cs1` (configuration not stated) | -78.87% | 15.7% |
| `Cc1cc(NC(=O)NCCc2cccnc2)n(C)n1` | 13.96% | 4.128% |
| `O=C(O)C(F)(F)F.[H][C@@]12CN(Cc3ccoc3)C[C@H](C(=O)N3CCCCO3)[C@]1([H])CCO2` | 16.2% | -20.79% |
| `COc1ncccc1CN1CCC2(CC1)CC(OCC1CC1)CO2.O=C(O)C(F)(F)F` (configuration not stated) | 1.375% | 24.63% |
| `CC(c1cccs1)N(C)Cc1cnc(-c2ccccn2)nc1` (configuration not stated) | 43.29% | 106.1% |
| `C=Cc1ccc(CSc2nc3c(c(=O)[nH]2)CN(CCC)CC3)cc1` | -26.7% | 24.48% |
| `O=C(C1CNCCO1)N1CCCC(c2ccccc2)(c2ccccc2)C1` (configuration not stated) | -23.15% | -30.72% |

Once more, the final 5:

structure,Mtb growth Cornell,Mtb heat-shock
O=C(O)C(F)(F)F.[H][C@@]12CN(Cc3ccoc3)C[C@H](C(=O)N3CCCCO3)[C@]1([H])CCO2,16.2%,-20.79%
COc1ncccc1CN1CCC2(CC1)CC(OCC1CC1)CO2.O=C(O)C(F)(F)F (configuration not stated),1.375%,24.63%
CC(c1cccs1)N(C)Cc1cnc(-c2ccccn2)nc1 (configuration not stated),43.29%,106.1%
C=Cc1ccc(CSc2nc3c(c(=O)[nH]2)CN(CCC)CC3)cc1,-26.7%,24.48%
O=C(C1CNCCO1)N1CCCC(c2ccccc2)(c2ccccc2)C1 (configuration not stated),-23.15%,-30.72%

Data taken from ChEMBL document CHEMBL3988442, “University of Dundee, Small-Polar-MMV Screening Library” (2021).